Results are given in words; binding and its absence hold for the method and conditions named. Where a sequence is shown, tags or fusion partners need not be part of it.
Molecular target: T1, Δ14-ARFRP1 Q79L fused to the Gal4 DNA-binding domain (human) (UniProt Q13795)
T1 sequence: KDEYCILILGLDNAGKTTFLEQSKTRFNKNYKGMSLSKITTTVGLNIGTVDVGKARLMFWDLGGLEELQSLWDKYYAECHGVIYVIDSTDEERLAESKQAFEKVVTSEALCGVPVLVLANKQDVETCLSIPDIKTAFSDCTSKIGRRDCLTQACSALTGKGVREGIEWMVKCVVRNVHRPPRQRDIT
Assay: two-hybrid; yeast AH109; ARL variants without the N-terminal helix on Gal4 BD (pGBKT7), ARMH3, PI4KB or T-Ag on Gal4 AD; growth on -His with 3 mM 3AT

binding: no binding
Substance: ARMH3 fused to the Gal4 transcriptional activation domain (pGAD-T7-ARMH3) (human)

Reference: PMC11585589
